Taken from: PubChem BioAssay AID504791 (Drosophila RNAi Screening Center, 2011)
Test: 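Genes of the fly required for silencing by miRNA, siRNA or endo-siRNA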 (primary screen). Cells: Drosophila S2-derived reporter cells. Reagent: long dsRNA against Drosophila genes, about 150-250 ng dsRNA per well (siRNA assay); about 80-120 ng (miRNA assay). Duration: about 5 days (siRNA assay); about 4 days (miRNA assay). Treatment: copper sulfate induction of reporters: 25 µM (siRNA assay); 200 mM stated (miRNA assay), 1-2 days before reading. Measured: 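Per-well ratio of Renilla over firefly light, expressed relative to that plate's average ratio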. Units: stable assay Renilla, run 1 in luminescence; stable assay firefly, run 1 in luminescence. Active means: 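a well was a first-pass pick when its plate-scaled ratio rose above 1.5 (siRNA assay) or 1.6 (miRNA assay), or dropped below 0.6; a gene counted only if two separate dsRNAs agreed on retest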.
The screen tested about 23,000 reagents; this is an unselected part of those with a known target gene and a result. In the full data, 199 (0.86%) got an active call. 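Plate-scaled ratios behind the calls are not deposited; printed light signals are raw; many rows marked increased or decreased are still called inactive.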 Not stated in the record: the direction of the score.

esg (escargot) [SID104183322] — stable assay Renilla, run 1: 7182; stable assay firefly, run 1: 4.21e5; activity call: inactive
CG33462 [SID104202261] — stable assay Renilla, run 1: 3627; stable assay firefly, run 1: 3.21e5; activity call: inactive
CG12699 [SID104185954] — stable assay Renilla, run 1: 11157; stable assay firefly, run 1: 4.65e5; activity call: inactive
CG8051 [SID104199869] — stable assay Renilla, run 1: 5850; stable assay firefly, run 1: 3.30e5; activity call: inactive
COX5A (Cytochrome c oxidase subunit 5A) [SID104196403] — stable assay Renilla, run 1: 5920; stable assay firefly, run 1: 4.58e5; activity call: inactive
CG7094 [SID104182797] — stable assay Renilla, run 1: 6583; stable assay firefly, run 1: 3.59e5; activity call: inactive
CG9263 [SID104182968] — stable assay Renilla, run 1: 6770; stable assay firefly, run 1: 3.72e5; activity call: inactive
CG18234 [SID104190101] — stable assay Renilla, run 1: 6656; stable assay firefly, run 1: 3.33e5; activity call: inactive
St2 (Sulfotransferase 2) [SID104194934] — stable assay Renilla, run 1: 7198; stable assay firefly, run 1: 4.48e5; activity call: inactive
St2 (Sulfotransferase 2) [SID104202035] — stable assay Renilla, run 1: 4187; stable assay firefly, run 1: 4.01e5; activity call: inactive
CG13060 [SID104189735] — stable assay Renilla, run 1: 6668; stable assay firefly, run 1: 4.52e5; activity call: inactive
UK114 [SID104181765] — stable assay Renilla, run 1: 8243; stable assay firefly, run 1: 4.35e5; activity call: inactive
laf (labial associated factor) [SID104192038] — stable assay Renilla, run 1: 7427; stable assay firefly, run 1: 4.68e5; activity call: inactive
Naam (Nicotinamide amidase) [SID104196044] — stable assay Renilla, run 1: 7402; stable assay firefly, run 1: 4.18e5; activity call: inactive
sced (scrambled) [SID104184782] — stable assay Renilla, run 1: 1.72e5; stable assay firefly, run 1: 1.09e6; activity call: inactive
Qsox2 (Quiescin sulfhydryl oxidase 2) [SID104195079] — stable assay Renilla, run 1: 9643; stable assay firefly, run 1: 5.02e5; activity call: inactive
RNF220 (ring finger protein 220) [SID104195444] — stable assay Renilla, run 1: 7324; stable assay firefly, run 1: 2.61e5; activity call: inactive
ATPCL (ATP citrate lyase) [SID104185705] — stable assay Renilla, run 1: 6476; stable assay firefly, run 1: 3.36e5; activity call: inactive
CG7299 [SID104182835] — stable assay Renilla, run 1: 7494; stable assay firefly, run 1: 4.84e5; activity call: inactive

No new results follow: an excerpt of the list.
RNF220 (ring finger protein 220) [SID104195444] — stable assay Renilla, run 1: 7324; stable assay firefly, run 1: 2.61e5; activity call: inactive
ATPCL (ATP citrate lyase) [SID104185705] — stable assay Renilla, run 1: 6476; stable assay firefly, run 1: 3.36e5; activity call: inactive
